No constants are given. Whether binding was seen depends on the method and setting. In cells and extracts the contact can be indirect. These calls come from enrichment with a bait or labelling near it, and not all partners need be listed.

The chains behind the UniProt entries cited, without tags or fusion partners.
UniProt O60260: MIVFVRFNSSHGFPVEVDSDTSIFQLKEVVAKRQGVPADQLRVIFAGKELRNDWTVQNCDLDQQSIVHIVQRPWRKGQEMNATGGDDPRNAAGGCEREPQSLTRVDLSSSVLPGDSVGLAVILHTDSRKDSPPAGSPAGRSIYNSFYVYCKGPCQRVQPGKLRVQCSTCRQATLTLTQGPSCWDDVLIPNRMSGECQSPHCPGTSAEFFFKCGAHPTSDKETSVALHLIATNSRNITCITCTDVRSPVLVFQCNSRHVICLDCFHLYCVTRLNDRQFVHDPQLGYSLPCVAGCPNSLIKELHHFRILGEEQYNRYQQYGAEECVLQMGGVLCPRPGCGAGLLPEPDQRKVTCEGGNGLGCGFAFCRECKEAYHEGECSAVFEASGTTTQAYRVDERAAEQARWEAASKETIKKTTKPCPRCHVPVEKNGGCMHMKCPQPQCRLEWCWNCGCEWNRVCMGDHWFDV

Experimental findings from PMC9731985 are described below.

For the experiment, the target named is FLAG-tagged Parkin (human) (UniProt O60260). Put plainly: affinity purification with mass spectrometry; FLAG-Parkin overexpressed in Hep3B cells, cultured under normoxia or hypoxia for 12 h, immunoprecipitated with the anti-FLAG antibody; the band indicated by the arrow analysed by LC-MS.

“heat shock cognate 71 kDa protein (Hsc70) (from UniProt P11142-1 1-646)”: the binding result is “binds”.
